This passage reports binding results from US20230312680A1.

In one experiment the target is HLA-A*02:01 (human). As to the kind of experiment: UV-ligand exchange, b2m ELISA; grade of exchange yield.
For another experiment, the target named is HLA-B*08:01 (human). As to the kind of experiment: b2m dissociation at 37 C; grade of mean half-life.
A further experiment deals with HLA-A*03:01 (human). As to the kind of experiment: UV-ligand exchange, b2m ELISA; grade of exchange yield.

No constants are given. Whether binding was seen depends on the method and setting. Binding can be weak; no strength is given. Ends that are not written are not given here.

B1: … (SEQ ID No 227) (peptide)
peptide: YTFRYPLSL
For B1, in the experiment with HLA-A*02:01 (human), the binding result was “binds”.

B2: … (SEQ ID No 222) (peptide)
peptide: ALMRLIGCPL
Take B2: in the experiment with HLA-A*02:01 (human), the binding result is listed as “binds”.

B3: FAHHGRSL (SEQ ID No 223) (peptide)
peptide: FAHHGRSL
B3: in the experiment with HLA-A*02:01 (human), the binding result is given as “binds”.

B4: … (SEQ ID No 241) (peptide)
peptide: RQPNILVHL
As to B4, the binding entry in the experiment with HLA-A*02:01 (human) is “binds”.

B5: LPKLAGLL (SEQ ID No 158) (peptide)
peptide: LPKLAGLL
Take B5: the binding entry with HLA-B*08:01 (human) is “binds”.

B6: LNKQKVTF (SEQ ID No 44) (peptide)
peptide: LNKQKVTF
In the case of B6, the binding entry with HLA-B*08:01 (human) was “binds”.

B7: QAKTHSTL (SEQ ID No 162) (peptide)
peptide: QAKTHSTL
Take B7: in the experiment with HLA-B*08:01 (human), the binding entry is on record as “binds”.

B8: … (SEQ ID No 164) (peptide)
peptide: SIKTKSAEM
Consider B8, for which, in the experiment with HLA-B*08:01 (human), the binding entry is “binds”.

B9: … (SEQ ID No 8) (peptide)
peptide: YLVTKVVAV
With B9, in the experiment with HLA-A*02:01 (human), the binding entry was “binds”.

B10: … (SEQ ID No 157) (peptide)
peptide: EAMKRLSYI
B10: the binding result with HLA-B*08:01 (human) is reported as “binds”.

B11: … (SEQ ID No 217) (peptide)
peptide: VSSSLTLKV
Turning to B11, in the experiment with HLA-A*02:01 (human), the binding result is given as “binds”.

B12: … (SEQ ID No 67) (peptide)
peptide: SLLLPSIFL
For B12, the binding result with HLA-A*02:01 (human) is “binds”.

B13: … (SEQ ID No 153) (peptide)
peptide: NAMLRKVAV
As for B13, the binding result in the experiment with HLA-B*08:01 (human) was “binds”.

B14: MAAVKQAL (SEQ ID No 150) (peptide)
peptide: MAAVKQAL
As to B14, in the experiment with HLA-B*08:01 (human), the binding result is “binds”.

B15: … (SEQ ID No 220) (peptide)
peptide: RMTTQLLLL
Regarding B15, in the experiment with HLA-A*02:01 (human), the binding entry is listed as “binds”.

B16: … (SEQ ID No 154) (peptide)
peptide: MLRKIAVAA
For B16, in the experiment with HLA-B*08:01 (human), the binding result is listed as “binds”.

B17: … (SEQ ID No 5) (peptide)
peptide: RLLDFINVL
For the molecule B17, the binding result with HLA-A*02:01 (human) was “binds”.

B18: … (SEQ ID No 161) (peptide)
peptide: ALKTTTTAL
For the molecule B18, in the experiment with HLA-B*08:01 (human), the binding entry is recorded as “binds”.

B19: … (SEQ ID No 99) (peptide)
peptide: KVVDRWNEK
For the molecule B19, the binding result in the experiment with HLA-A*03:01 (human) was “binds”.

B20: … (SEQ ID No 94) (peptide)
peptide: ATFERVLLR
For B20, the binding result in the experiment with HLA-A*03:01 (human) is given as “binds”.

B21: … (SEQ ID No 46) (peptide)
peptide: DMKKAKEQL
Take B21: the binding entry in the experiment with HLA-B*08:01 (human) was “binds”.

B22: … (SEQ ID No 48) (peptide)
peptide: DVKKKIKEV
B22: the binding result with HLA-B*08:01 (human) is given as “binds”.

B23: … (SEQ ID No 228) (peptide)
peptide: RLWDWVPLA
Take B23: in the experiment with HLA-A*02:01 (human), the binding result is given as “binds”.

B24: … (SEQ ID No 62) (peptide)
peptide: KVLGVNVML
On to B24, for which the binding entry with HLA-A*02:01 (human) is given as “binds”.

B25: YPKARLAF (SEQ ID No 160) (peptide)
peptide: YPKARLAF
In the case of B25, the binding entry in the experiment with HLA-B*08:01 (human) was “binds”.

B26: … (SEQ ID No 7) (peptide)
peptide: ALQAFEFRV
With B26, the binding result with HLA-A*02:01 (human) was “binds”.

B27: … (SEQ ID No 45) (peptide)
peptide: VGREKKLAL
With B27, the binding entry in the experiment with HLA-B*08:01 (human) was “binds”.

B28: … (SEQ ID No 219) (peptide)
peptide: PLPRPGAVL
Take B28: the binding result with HLA-A*02:01 (human) is recorded as “binds”.

B29: … (SEQ ID No 152) (peptide)
peptide: MGSARVAEL
Regarding B29, the binding result in the experiment with HLA-B*08:01 (human) was “binds”.

B30: … (SEQ ID No 69) (peptide)
peptide: TTYEGSITV
Take B30: the binding entry with HLA-A*02:01 (human) was “binds”.

B31: … (SEQ ID No 242) (peptide)
peptide: STIPALHEI
Take B31: in the experiment with HLA-A*02:01 (human), the binding result was “binds”.

B32: … (SEQ ID No 95) (peptide)
peptide: QSMYYPLQLK
In the case of B32, the binding result in the experiment with HLA-A*03:01 (human) is on record as “binds”.

B33: ALFKAWAL (SEQ ID No 4) (peptide)
peptide: ALFKAWAL
Turning to B33, the binding result with HLA-A*02:01 (human) is on record as “binds”.

B34: … (SEQ ID No 216) (peptide)
peptide: IMFDDAIERA
As for B34, the binding entry in the experiment with HLA-A*02:01 (human) is “binds”.

B35: … (SEQ ID No 243) (peptide)
peptide: YASEGVKQV
Regarding B35, the binding result with HLA-A*02:01 (human) is listed as “binds”.

B36: … (SEQ ID No 66) (peptide)
peptide: GLLQELSSI
Turning to B36, the binding entry in the experiment with HLA-A*02:01 (human) is “binds”.

B37: … (SEQ ID No 159) (peptide)
peptide: VLKHKLDEL
In the case of B37, in the experiment with HLA-B*08:01 (human), the binding entry is recorded as “binds”.

B38: … (SEQ ID No 9) (peptide)
peptide: VLLAGFKPPL
B38: in the experiment with HLA-A*02:01 (human), the binding entry is “binds”.

B39: … (SEQ ID No 244) (peptide)
peptide: DTDSSVHVQV
On to B39, for which the binding result in the experiment with HLA-A*02:01 (human) is “binds”.

B40: … (SEQ ID No 61) (peptide)
peptide: YMVHIQVTL
Consider B40, for which, in the experiment with HLA-A*02:01 (human), the binding result is “binds”.

B41: … (SEQ ID No 2) (peptide)
peptide: TLLKALLEI
Turning to B41, the binding entry in the experiment with HLA-A*02:01 (human) is reported as “binds”.

B42: … (SEQ ID No 43) (peptide)
peptide: ALKARTVTF
In the case of B42, the binding result with HLA-B*08:01 (human) is listed as “binds”.

B43: … (SEQ ID No 70) (peptide)
peptide: VLQGLLRSL
B43: the binding entry with HLA-A*02:01 (human) is on record as “binds”.

B44: DMKYKNRV (SEQ ID No 50) (peptide)
peptide: DMKYKNRV
Turning to B44, the binding entry in the experiment with HLA-B*08:01 (human) is recorded as “binds”.

B45: … (SEQ ID No 68) (peptide)
peptide: KLFDTQQFL
B45: the binding entry in the experiment with HLA-A*02:01 (human) is “binds”.

B46: … (SEQ ID No 73) (peptide)
peptide: FLIEELLFA
Turning to B46, the binding result with HLA-A*02:01 (human) is “binds”.

B47: … (SEQ ID No 72) (peptide)
peptide: YLTDLQVSL
For the molecule B47, the binding entry with HLA-A*02:01 (human) is on record as “binds”.

B48: QGLLRPVF (SEQ ID No 163) (peptide)
peptide: QGLLRPVF
On to B48, for which the binding result with HLA-B*08:01 (human) is “binds”.

B49: SLLDLYQL (SEQ ID No 221) (peptide)
peptide: SLLDLYQL
Regarding B49, the binding result with HLA-A*02:01 (human) was “binds”.

B50: … (SEQ ID No 236) (peptide)
peptide: SAIPFSMTL
B50: the binding entry in the experiment with HLA-A*02:01 (human) is reported as “binds”.

B51: … (SEQ ID No 63) (peptide)
peptide: MMEEMIFNL
B51: the binding result with HLA-A*02:01 (human) is reported as “binds”.

B52: … (SEQ ID No 51) (peptide)
peptide: SLRLKNVQL
In the case of B52, the binding entry with HLA-B*08:01 (human) was “binds”.

B53: … (SEQ ID No 1) (peptide)
peptide: MIPTFTALL
B53: in the experiment with HLA-A*02:01 (human), the binding result is listed as “binds”.

B54: … (SEQ ID No 47) (peptide)
peptide: MPNLRSVDL
For the molecule B54, the binding entry with HLA-B*08:01 (human) is “binds”.

B55: … (SEQ ID No 151) (peptide)
peptide: HLLLKVLAF
Take B55: the binding entry with HLA-B*08:01 (human) is reported as “binds”.

B56: … (SEQ ID No 234) (peptide)
peptide: GVATRVDAI
With B56, the binding entry in the experiment with HLA-A*02:01 (human) is “binds”.

B57: … (SEQ ID No 224) (peptide)
peptide: SLPRFQVTL
Take B57: the binding result with HLA-A*02:01 (human) is listed as “binds”.

B58: … (SEQ ID No 75) (peptide)
peptide: KVVSVLYNV
As for B58, in the experiment with HLA-A*02:01 (human), the binding result was “binds”.

B59: … (SEQ ID No 64) (peptide)
peptide: FLDPDRHFL
On to B59, for which the binding entry with HLA-A*02:01 (human) is “binds”.

B60: … (SEQ ID No 232) (peptide)
peptide: TISSLTHEL
In the case of B60, the binding entry with HLA-A*02:01 (human) is given as “binds”.

B61: … (SEQ ID No 71) (peptide)
peptide: YLEDTDRNL
Take B61: in the experiment with HLA-A*02:01 (human), the binding entry is listed as “binds”.

B62: … (SEQ ID No 98) (peptide)
peptide: LLQPPPLLAR
Consider B62, for which the binding entry with HLA-A*03:01 (human) is “binds”.

B63: … (SEQ ID No 229) (peptide)
peptide: ISVPAKTSL
For the molecule B63, the binding result in the experiment with HLA-A*02:01 (human) is “binds”.

B64: … (SEQ ID No 49) (peptide)
peptide: LPRLKAFMI
In the case of B64, the binding entry with HLA-B*08:01 (human) is recorded as “binds”.

B65: HVKEKFLL (SEQ ID No 156) (peptide)
peptide: HVKEKFLL
As for B65, the binding result with HLA-B*08:01 (human) was “binds”.

B66: … (SEQ ID No 6) (peptide)
peptide: SLGKHTVAL
For B66, the binding result in the experiment with HLA-A*02:01 (human) is “binds”.

B67: … (SEQ ID No 231) (peptide)
peptide: SVTESTHHL
Regarding B67, the binding entry with HLA-A*02:01 (human) was “binds”.

B68: … (SEQ ID No 60) (peptide)
peptide: GLLSLTSTLYL
In the case of B68, in the experiment with HLA-A*02:01 (human), the binding result is recorded as “binds”.

B69: … (SEQ ID No 3) (peptide)
peptide: ALIYNLVGI
Regarding B69, in the experiment with HLA-A*02:01 (human), the binding result is “binds”.
